Assay [1] has as its target T1, ELF3 (UniProt P78545).
T1 sequence: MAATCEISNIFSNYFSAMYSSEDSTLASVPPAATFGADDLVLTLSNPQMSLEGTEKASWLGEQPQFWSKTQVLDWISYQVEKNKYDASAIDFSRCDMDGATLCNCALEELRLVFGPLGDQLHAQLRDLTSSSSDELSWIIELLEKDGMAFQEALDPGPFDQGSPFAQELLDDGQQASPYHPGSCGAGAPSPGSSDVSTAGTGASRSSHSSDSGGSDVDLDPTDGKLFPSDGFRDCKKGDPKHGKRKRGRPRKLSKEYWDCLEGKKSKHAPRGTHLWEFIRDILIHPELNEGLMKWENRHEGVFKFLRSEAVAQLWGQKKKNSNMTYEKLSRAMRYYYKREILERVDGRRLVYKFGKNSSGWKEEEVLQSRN
Nature of the assay: DAPPL (digital affinity profiling via proximity ligation, sequencing). To be noted: 10 mM Tris-HCl pH 7.5, 50 mM NaCl, 1 mM DTT, 4% glycerol, room temperature, 30 min; GST-TFs on glutathione beads, 16-mer random dsDNA library, 0.1% …; high values mean tight binding; double strand, one strand shown; scale: fold enrichment (6-mer frequency, TF over GST control).

Chains of the proteins cited; added tags and fusions are not shown. Lines headed by an entry give the natural chain unless they say otherwise; changes in a name come on top.
UniProt Q9Y603: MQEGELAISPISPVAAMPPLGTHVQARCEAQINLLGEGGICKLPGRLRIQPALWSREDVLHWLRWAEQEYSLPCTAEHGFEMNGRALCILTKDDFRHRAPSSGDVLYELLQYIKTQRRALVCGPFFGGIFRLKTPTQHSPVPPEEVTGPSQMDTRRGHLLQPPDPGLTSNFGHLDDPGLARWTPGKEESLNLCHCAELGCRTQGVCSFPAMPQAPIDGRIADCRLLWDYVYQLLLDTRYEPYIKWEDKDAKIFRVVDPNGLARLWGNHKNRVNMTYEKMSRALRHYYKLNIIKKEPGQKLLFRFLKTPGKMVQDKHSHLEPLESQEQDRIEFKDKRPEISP

Assay [2] has as its target ETV7 (UniProt Q9Y603). The description is as above. To be noted: 10 mM Tris-HCl pH 7.5, 50 mM NaCl, 1 mM DTT, 4% glycerol, room temperature, 30 min; GST-TFs on glutathione beads, 16-mer random dsDNA library, 0.1% …; high values mean tight binding; double strand, one strand shown; scale: fold enrichment (6-mer frequency, TF over GST control).

The entries are a selection whose mix differs from that of the whole data set. At the low end of the ranking the order means little.

Take GAATGG: the binding signal is 0.949 in assay [1] and 0.94 in assay [2].
GCGCCC: the binding signal in assay [1] stood at 0.971; in assay [2], 0.991.
CGTCCA: the binding signal in assay [1] was 0.994; in assay [2] it was 0.99.
The matching figures for CGGTAT: 0.922 and 0.97.
The matching figures for TGGATA: 1.16 and 0.99.
The matching figures for GTCCTG: 1.07 and 1.26.
As for TTTAGA, the figures for the binding signal in assay [1] and in assay [2] were 0.969 and 1.05, respectively.
In the case of TATCTG, the binding signal in assay [1] stood at 0.986.
As for TCGTCA, the values for the binding signal in assay [1] and in assay [2] were 0.969 and 0.996, respectively.
For GCAATC, in that order: 0.85 and 0.913.
GGCTAA: the binding signal in assay [1] came to 0.999; in assay [2], 1.
For the sequence GCGCCG, the binding signal in assay [1] came to 0.972; in assay [2], 0.887.
On to AGCGCC, for which the binding signal turned out to be 1.09 in assay [1] and 0.982 in assay [2].
CGGTTA showed a binding signal in assay [1] of 1.
In the case of CAATGT, the binding signal in assay [1] came to 0.909; in assay [2], 1.09.
In assay [1], ATATAA displayed a binding signal of 1.28.
As to AGATTA, the binding signal in assay [1] is 0.989; in assay [2], 0.987.
Consider CCCGAT, for which the results for the binding signal in assay [1] and in assay [2] were 1.2 and 1.24, respectively.
The matching figures for CGTCTG: 0.975 and 1.02.
TGATCG came in with a binding signal in assay [1] of 0.944.
On to CGACGC, for which the values for the binding signal in assay [1] and in assay [2] were 1.28 and 1.05, respectively.
As for TCCCAT, the results for the binding signal in assay [1] and in assay [2] were 1.44 and 1.28, respectively.
In assay [1], TTTGTT registered a binding signal of 1.35.
With ACGAAA, the binding signal in assay [1] is 1.19.
Consider ACGTTG, for which, in assay [1], the binding signal was found to be 0.938.
With GTGCCC, the binding signal in assay [1] is 0.94; in assay [2], 1.01.
For the sequence TGACGC, the binding signal in assay [1] stood at 1.11.
Consider GTGCGC, for which the binding signal in assay [1] amounted to 0.791; in assay [2], 0.978.
On to CCCGGT, for which the binding signal in assay [1] was 1.06.
Take AGTCTC: the binding signal stood at 0.922 in assay [1] and 0.835 in assay [2].
GCACTG came in with a binding signal in assay [1] of 0.926.
In the case of TTCCGC, the binding signal in assay [1] was found to be 3.06; in assay [2] it was 3.02.
In the case of AGCAAC, the binding signal came out at 0.989 in assay [1] and 1.1 in assay [2].
For CGGCAA, in that order: 0.923 and 0.915.
The matching figures for ATACAT: 1.15 and 1.36.
For AAACTG, in that order: 1.01 and 1.13.
As to AGCGTC, the binding signal in assay [1] amounted to 0.932; in assay [2], 1.06.
Take TTATAT: the results for the binding signal in assay [1] and in assay [2] were 1.44 and 1.38, respectively.
The matching figures for AGTACC: 0.991 and 0.943.
Consider ACGGTT, for which the binding signal in assay [1] was found to be 0.921.
Take CAAAGC: the binding signal in assay [1] was determined as 1.03; in assay [2] it was 0.983.
For TGTCAC, the values for the binding signal in assay [1] and in assay [2] were 1.2 and 1.29, respectively.
The matching figures for TCACGG: 0.981 and 1.04.
Take GCCCCA: the binding signal in assay [1] is 0.992; in assay [2], 0.934.
The matching figures for AGGGCT: 0.931 and 1.12.
